The list is a part of this screen's results and no random one: it gathers some chemical classes. Other doses and runs of a compound may be missing. T/C: endpoint of the treated group in % of that of the vehicle group. Some doses have a count of surviving animals in place of a T/C: the source holds a T/C of zero for them, seemingly a mark for toxic or unscored doses. Some doses without a T/C left all or most animals alive at the check, yet need not have been tolerated: the source hardly ever lists a survival T/C far under the control, and the zero likely stands for such cases as well. Counts of survivors are from the toxicity check (mostly the fifth day) where no day follows; animals may have died later. Schedule codes are those of the source, taken here to give the interval after Q, in days (D) or hours (H), and the number of doses after X. Where survival is the endpoint, this PubChem deposit counts one and a half times the control or more as active, and values a quarter to a half above the control carry no call in these data; other NCI protocols may use other cut-offs. Some T/C values are marked as having no survivor count here; that says nothing about deaths at the dose. Some T/C values are followed by the survivors on the day toxicity was checked, most often the fifth; without a count or a note in brackets, all were alive then.
Test system: CD2F1 mice, L1210 leukemia ip, survival T/C
Assay: NCI In Vivo Anticancer Drug Screen. Data for tumor model L1210 Leukemia (intraperitoneal) in CD2F1 (CDF1) mice
Details: higher T/C = longer survival
In short: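 Implant tumor; dose compound or vehicle; measure endpoint in both groups; report treated divided by control.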

[1] = T/C endpoint: mean survival time, dose: 100.0 mg/kg/injection, schedule: Q01DX001 (ip), vehicle: saline with Tween-80
[2] = T/C endpoint: mean survival time, dose: 200.0 mg/kg/injection, schedule: Q01DX001 (ip), vehicle: saline with Tween-80
[3] = T/C endpoint: mean survival time, dose: 400.0 mg/kg/injection, schedule: Q01DX001 (ip), vehicle: saline with Tween-80
[4] = T/C endpoint: mean survival time, dose: 50.0 mg/kg/injection, schedule: Q01DX009 (ip), vehicle: saline with Tween-80
[5] = T/C endpoint: mean survival time, dose: 100.0 mg/kg/injection, schedule: Q01DX009 (ip), vehicle: saline with Tween-80
[6] = T/C endpoint: mean survival time, dose: 100.0 mg/kg/injection, schedule: Q04DX003 (ip), vehicle: saline
[7] = T/C endpoint: mean survival time, dose: 200.0 mg/kg/injection, schedule: Q04DX003 (ip), vehicle: saline
[8] = T/C endpoint: mean survival time, dose: 400.0 mg/kg/injection, schedule: Q04DX003 (ip), vehicle: saline
[9] = T/C endpoint: mean survival time, dose: 50.0 mg/kg/injection, schedule: Q04DX002 (ip), vehicle: saline with Tween-80
[10] = T/C endpoint: mean survival time, dose: 100.0 mg/kg/injection, schedule: Q04DX002 (ip), vehicle: saline with Tween-80
[11] = T/C endpoint: mean survival time, dose: 200.0 mg/kg/injection, schedule: Q04DX002 (ip), vehicle: saline with Tween-80
[12] = T/C endpoint: mean survival time, dose: 25.0 mg/kg/injection, schedule: Q01DX009 (ip), vehicle: saline with Tween-80
[13] = T/C endpoint: mean survival time, dose: 100.0 mg/kg/injection, schedule: Q04DX003 (ip), vehicle: saline with Tween-80
[14] = T/C endpoint: mean survival time, dose: 200.0 mg/kg/injection, schedule: Q04DX003 (ip), vehicle: saline with Tween-80
[15] = T/C endpoint: mean survival time, dose: 400.0 mg/kg/injection, schedule: Q04DX003 (ip), vehicle: saline with Tween-80

CC[O+](CC)CC
T/C (T/C endpoint: mean survival time, dose: 6.25 mg/kg/injection, schedule: Q04DX002 (ip), vehicle: saline): 96 % of control | T/C (T/C endpoint: mean survival time, dose: 12.5 mg/kg/injection, schedule: Q04DX002 (ip), vehicle: saline): 104 % of control | T/C (T/C endpoint: mean survival time, dose: 25.0 mg/kg/injection, schedule: Q04DX002 (ip), vehicle: saline): 96 % of control

CCCCNCCN=C(N)C(N)=NCCNCCCC.O=[N+]([O-])c1cc([N+](=O)[O-])c(O)c([N+](=O)[O-])c1
T/C (T/C endpoint: mean survival time, dose: 75.0 mg/kg/injection, schedule: Q04DX002 (ip), vehicle: saline with Tween-80): 96 % of control [survivor count not shown]

S=P(Cl)(Cl)Oc1ccccc1
T/C (T/C endpoint: mean survival time, dose: 6.25 mg/kg/injection, schedule: Q01DX001 (ip), vehicle: saline with Tween-80): 105 % of control | T/C (T/C endpoint: mean survival time, dose: 12.5 mg/kg/injection, schedule: Q01DX001 (ip), vehicle: saline with Tween-80): 103 % of control | T/C (T/C endpoint: mean survival time, dose: 25.0 mg/kg/injection, schedule: Q01DX001 (ip), vehicle: saline with Tween-80): 103 % of control | survivor count [1]: 0 of 6 | survivor count [2]: 0 of 6 | survivor count [3]: 0 of 6

N#CCCOP(=O)(OCCC#N)N(CCCl)CCCl
T/C (T/C endpoint: mean survival time, dose: 62.5 mg/kg/injection, schedule: Q01DX005 (ip), vehicle: Klucel (hydroxypropylcellulose) (HPC)): 96 % of control | T/C (T/C endpoint: mean survival time, dose: 125.0 mg/kg/injection, schedule: Q01DX001 (ip), vehicle: Klucel (hydroxypropylcellulose) (HPC)): 104 % of control | T/C (T/C endpoint: mean survival time, dose: 125.0 mg/kg/injection, schedule: Q01DX005 (ip), vehicle: Klucel (hydroxypropylcellulose) (HPC)): 100 % of control | T/C (T/C endpoint: mean survival time, dose: 250.0 mg/kg/injection, schedule: Q01DX001 (ip), vehicle: Klucel (hydroxypropylcellulose) (HPC)): 102 % of control | T/C (T/C endpoint: mean survival time, dose: 250.0 mg/kg/injection, schedule: Q01DX005 (ip), vehicle: Klucel (hydroxypropylcellulose) (HPC)): 96 % of control | T/C (T/C endpoint: mean survival time, dose: 500.0 mg/kg/injection, schedule: Q01DX001 (ip), vehicle: Klucel (hydroxypropylcellulose) (HPC)): 101 % of control | T/C (T/C endpoint: mean survival time, dose: 500.0 mg/kg/injection, schedule: Q01DX005 (ip), vehicle: Klucel (hydroxypropylcellulose) (HPC)): 94 % of control | T/C (T/C endpoint: mean survival time, dose: 1000.0 mg/kg/injection, schedule: Q01DX001 (ip), vehicle: Klucel (hydroxypropylcellulose) (HPC)): 107 % of control | T/C (T/C endpoint: mean survival time, dose: 1000.0 mg/kg/injection, schedule: Q01DX005 (ip), vehicle: Klucel (hydroxypropylcellulose) (HPC)): 104 % of control [5 of 6 alive]

CCNC(=O)O[C@@H]1CC[N+]2([O-])CC=C(COC(=O)C(O)(CC)c3ccc(Cl)cc3)C12 (stereo partly specified)
T/C (T/C endpoint: median survival time, dose: 6.25 mg/kg/injection, schedule: Q01DX005 (ip), vehicle: saline): 104 % of control | T/C (T/C endpoint: median survival time, dose: 12.5 mg/kg/injection, schedule: Q01DX005 (ip), vehicle: saline): 108 % of control | T/C (T/C endpoint: median survival time, dose: 25.0 mg/kg/injection, schedule: Q01DX005 (ip), vehicle: saline): 110 % of control | T/C (T/C endpoint: median survival time, dose: 50.0 mg/kg/injection, schedule: Q01DX005 (ip), vehicle: saline): 115 % of control | T/C (T/C endpoint: median survival time, dose: 100.0 mg/kg/injection, schedule: Q01DX005 (ip), vehicle: saline): 146 % of control

CC(C)=C(OP(C)(I)(N(C)C)N(C)C)C(C)(C)C(=O)N(C)C
T/C (T/C endpoint: mean survival time, dose: 75.0 mg/kg/injection, schedule: Q01DX001 (ip), vehicle: saline): 103 % of control [survivor count not shown] | T/C (T/C endpoint: mean survival time, dose: 150.0 mg/kg/injection, schedule: Q01DX001 (ip), vehicle: saline): 97 % of control [survivor count not shown]

CP1(=S)SP(C)(=S)S1 (stereo unspecified)
T/C [4]: 98 % of control [survivor count not shown] | T/C [5]: 100 % of control [survivor count not shown]

CCCOP(=S)(N=C(N)N)OCCC
T/C (T/C endpoint: mean survival time, dose: 100.0 mg/kg/injection, schedule: Q01DX001 (ip), vehicle: saline): 100 % of control | T/C [6]: 102 % of control | T/C (T/C endpoint: mean survival time, dose: 200.0 mg/kg/injection, schedule: Q01DX001 (ip), vehicle: saline): 97 % of control | T/C [7]: 100 % of control | T/C (T/C endpoint: mean survival time, dose: 400.0 mg/kg/injection, schedule: Q01DX001 (ip), vehicle: saline): 100 % of control [5 of 6 alive] | T/C [8]: 101 % of control [5 of 6 alive]

CC(=O)c1cc(CN(C)C)oc1C.O=[N+]([O-])c1cc([N+](=O)[O-])c(O)c([N+](=O)[O-])c1
T/C [9]: 98 % of control [survivor count not shown] | T/C [1]: 101 % of control [survivor count not shown] | T/C [10]: 106 % of control [survivor count not shown] | T/C [2]: 100 % of control [survivor count not shown] | T/C [11]: 92 % of control [survivor count not shown] | T/C [3]: 100 % of control [survivor count not shown]

CCCCNCCN(CCCC)C(=N)C(=N)N(CCCC)CCNCCCC.O=[N+]([O-])c1cc([N+](=O)[O-])c(O)c([N+](=O)[O-])c1
T/C [9]: 96 % of control | T/C [10]: 96 % of control | T/C [11]: 89 % of control

CCCCCCC(C)N(CC)CCO.O=[N+]([O-])c1cc([N+](=O)[O-])c(O)c([N+](=O)[O-])c1
T/C (T/C endpoint: mean survival time, dose: 75.0 mg/kg/injection, schedule: Q01DX001 (ip), vehicle: other): 96 % of control | T/C (T/C endpoint: mean survival time, dose: 150.0 mg/kg/injection, schedule: Q01DX001 (ip), vehicle: other): 100 % of control [4 of 6 alive] | survivor count (T/C endpoint: mean survival time, dose: 300.0 mg/kg/injection, schedule: Q01DX001 (ip), vehicle: other): 0 of 6

CC(=O)SCC(Cl)Cl
T/C [12]: 94 % of control | T/C (T/C endpoint: mean survival time, dose: 25.0 mg/kg/injection, schedule: Q04DX003 (ip), vehicle: saline): 92 % of control | T/C [4]: 94 % of control | T/C (T/C endpoint: mean survival time, dose: 50.0 mg/kg/injection, schedule: Q04DX003 (ip), vehicle: saline): 100 % of control | T/C [5]: 96 % of control | T/C [13]: 97 % of control | T/C [6]: 92 % of control | survivor count [14]: 6 of 6 | survivor count [15]: 0 of 6

NC1CCCCC1.O=P(O)(N(CCCl)CCCl)N1CCOCC1
T/C (T/C endpoint: mean survival time, dose: 62.5 mg/kg/injection, schedule: Q01DX010 (ip), vehicle: saline): 104 % of control | T/C (T/C endpoint: mean survival time, dose: 125.0 mg/kg/injection, schedule: Q01DX010 (ip), vehicle: saline): 127 % of control | T/C (T/C endpoint: mean survival time, dose: 250.0 mg/kg/injection, schedule: Q01DX010 (ip), vehicle: saline): 148 % of control | T/C (T/C endpoint: mean survival time, dose: 500.0 mg/kg/injection, schedule: Q01DX010 (ip), vehicle: saline): 119 % of control

O=[N+]([O-])c1ccc(SSc2ccc([N+](=O)[O-])cc2[N+](=O)[O-])c([N+](=O)[O-])c1
T/C [5]: 94 % of control | T/C (T/C endpoint: mean survival time, dose: 200.0 mg/kg/injection, schedule: Q01DX009 (ip), vehicle: saline with Tween-80): 93 % of control | T/C (T/C endpoint: mean survival time, dose: 400.0 mg/kg/injection, schedule: Q01DX009 (ip), vehicle: saline with Tween-80): 93 % of control

ClP1(Cl)=NP(Cl)(Cl)=NP(Cl)(Oc2ccccc2)=N1 (stereo unspecified)
T/C (T/C endpoint: mean survival time, dose: 6.25 mg/kg/injection, schedule: Q01DX009 (ip), vehicle: saline with Tween-80): 102 % of control | T/C (T/C endpoint: mean survival time, dose: 12.5 mg/kg/injection, schedule: Q01DX009 (ip), vehicle: saline with Tween-80): 100 % of control | T/C [12]: 108 % of control [5 of 6 alive] | survivor count [13]: 3 of 6 | survivor count [14]: 0 of 6 | survivor count [15]: 0 of 6

C1CN1.NC(=O)CC(N)C(=O)O (stereo unspecified)
T/C [6]: 112 % of control [5 of 6 alive] | T/C [7]: 112 % of control | survivor count [8]: 0 of 6

From PubChem BioAssay AID256 (DTP/NCI, 2004)
